This is one part of the list. Small differences around the control level are noise.

Sequences of proteins named here, by UniProt entry; tags and fusion partners are left off. A change or cut given only in a name is not applied to a line headed by its entry.
UniProt P46821: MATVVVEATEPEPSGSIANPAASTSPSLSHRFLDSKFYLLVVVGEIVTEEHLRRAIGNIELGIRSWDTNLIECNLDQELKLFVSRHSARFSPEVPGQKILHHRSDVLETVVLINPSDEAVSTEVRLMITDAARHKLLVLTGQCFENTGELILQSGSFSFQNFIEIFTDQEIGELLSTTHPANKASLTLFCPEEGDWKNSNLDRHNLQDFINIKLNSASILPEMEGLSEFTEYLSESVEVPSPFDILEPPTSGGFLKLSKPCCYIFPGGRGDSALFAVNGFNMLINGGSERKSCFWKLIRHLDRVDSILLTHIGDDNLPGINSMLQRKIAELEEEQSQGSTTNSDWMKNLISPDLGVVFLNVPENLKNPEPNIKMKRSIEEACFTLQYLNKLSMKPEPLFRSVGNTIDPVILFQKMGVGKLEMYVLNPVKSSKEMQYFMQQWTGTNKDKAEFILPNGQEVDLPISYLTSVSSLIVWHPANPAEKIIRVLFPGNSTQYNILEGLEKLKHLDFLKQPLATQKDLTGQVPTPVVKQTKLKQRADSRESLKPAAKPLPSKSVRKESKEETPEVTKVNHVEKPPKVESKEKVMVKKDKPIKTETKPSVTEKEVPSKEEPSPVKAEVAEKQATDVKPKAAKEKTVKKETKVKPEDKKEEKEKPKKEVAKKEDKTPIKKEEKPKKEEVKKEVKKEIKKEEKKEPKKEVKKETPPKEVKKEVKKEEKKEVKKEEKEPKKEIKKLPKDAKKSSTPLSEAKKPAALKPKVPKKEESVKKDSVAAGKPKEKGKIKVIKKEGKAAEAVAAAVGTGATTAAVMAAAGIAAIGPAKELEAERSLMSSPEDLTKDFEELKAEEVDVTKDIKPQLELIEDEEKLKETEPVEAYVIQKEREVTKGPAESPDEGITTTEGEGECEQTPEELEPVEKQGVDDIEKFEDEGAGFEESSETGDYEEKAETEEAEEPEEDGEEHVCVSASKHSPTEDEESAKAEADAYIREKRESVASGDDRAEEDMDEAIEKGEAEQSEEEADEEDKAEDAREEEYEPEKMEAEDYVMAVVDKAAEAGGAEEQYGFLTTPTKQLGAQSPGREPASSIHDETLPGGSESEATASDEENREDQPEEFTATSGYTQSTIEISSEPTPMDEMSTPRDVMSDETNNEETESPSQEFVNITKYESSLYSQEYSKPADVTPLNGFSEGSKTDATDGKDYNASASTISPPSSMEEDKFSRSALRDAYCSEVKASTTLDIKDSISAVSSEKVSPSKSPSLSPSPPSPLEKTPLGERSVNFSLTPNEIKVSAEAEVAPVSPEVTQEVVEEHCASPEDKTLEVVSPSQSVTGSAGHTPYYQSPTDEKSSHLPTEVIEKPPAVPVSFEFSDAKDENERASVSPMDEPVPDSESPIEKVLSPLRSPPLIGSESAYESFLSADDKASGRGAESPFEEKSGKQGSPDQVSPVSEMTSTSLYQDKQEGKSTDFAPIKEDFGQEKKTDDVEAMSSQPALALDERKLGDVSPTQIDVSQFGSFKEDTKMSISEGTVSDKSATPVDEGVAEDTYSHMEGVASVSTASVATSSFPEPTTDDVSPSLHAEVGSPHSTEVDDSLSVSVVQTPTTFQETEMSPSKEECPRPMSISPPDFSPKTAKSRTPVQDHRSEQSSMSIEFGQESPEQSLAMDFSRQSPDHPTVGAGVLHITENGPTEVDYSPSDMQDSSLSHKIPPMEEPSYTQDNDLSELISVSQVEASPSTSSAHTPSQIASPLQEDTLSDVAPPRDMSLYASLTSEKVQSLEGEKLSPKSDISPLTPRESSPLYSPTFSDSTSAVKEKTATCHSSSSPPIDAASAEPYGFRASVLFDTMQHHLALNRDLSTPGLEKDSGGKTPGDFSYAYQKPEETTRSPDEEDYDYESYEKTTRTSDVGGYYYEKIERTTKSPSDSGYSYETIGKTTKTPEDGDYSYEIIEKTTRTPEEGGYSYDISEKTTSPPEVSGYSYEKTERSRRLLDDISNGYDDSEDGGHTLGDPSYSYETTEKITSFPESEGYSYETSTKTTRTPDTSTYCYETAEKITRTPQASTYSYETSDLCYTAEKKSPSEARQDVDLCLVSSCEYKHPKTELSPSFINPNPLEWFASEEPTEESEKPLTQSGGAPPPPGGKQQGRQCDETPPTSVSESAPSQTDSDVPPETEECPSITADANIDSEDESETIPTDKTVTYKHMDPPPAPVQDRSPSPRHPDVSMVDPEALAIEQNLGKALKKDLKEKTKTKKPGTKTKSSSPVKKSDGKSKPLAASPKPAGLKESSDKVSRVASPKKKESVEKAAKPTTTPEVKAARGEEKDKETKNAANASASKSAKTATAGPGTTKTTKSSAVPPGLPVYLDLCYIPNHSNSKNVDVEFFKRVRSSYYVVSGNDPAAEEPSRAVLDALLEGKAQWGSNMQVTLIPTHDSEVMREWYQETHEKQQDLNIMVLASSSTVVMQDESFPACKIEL
UniProt P50226: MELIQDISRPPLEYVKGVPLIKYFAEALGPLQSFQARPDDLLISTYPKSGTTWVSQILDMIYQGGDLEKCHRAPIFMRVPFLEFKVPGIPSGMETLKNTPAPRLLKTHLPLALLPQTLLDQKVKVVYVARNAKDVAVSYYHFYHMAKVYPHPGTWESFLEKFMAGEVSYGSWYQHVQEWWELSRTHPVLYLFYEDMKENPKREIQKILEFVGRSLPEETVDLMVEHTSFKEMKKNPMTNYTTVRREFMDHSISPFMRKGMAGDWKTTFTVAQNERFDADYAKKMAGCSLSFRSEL
UniProt P54198, whole entry: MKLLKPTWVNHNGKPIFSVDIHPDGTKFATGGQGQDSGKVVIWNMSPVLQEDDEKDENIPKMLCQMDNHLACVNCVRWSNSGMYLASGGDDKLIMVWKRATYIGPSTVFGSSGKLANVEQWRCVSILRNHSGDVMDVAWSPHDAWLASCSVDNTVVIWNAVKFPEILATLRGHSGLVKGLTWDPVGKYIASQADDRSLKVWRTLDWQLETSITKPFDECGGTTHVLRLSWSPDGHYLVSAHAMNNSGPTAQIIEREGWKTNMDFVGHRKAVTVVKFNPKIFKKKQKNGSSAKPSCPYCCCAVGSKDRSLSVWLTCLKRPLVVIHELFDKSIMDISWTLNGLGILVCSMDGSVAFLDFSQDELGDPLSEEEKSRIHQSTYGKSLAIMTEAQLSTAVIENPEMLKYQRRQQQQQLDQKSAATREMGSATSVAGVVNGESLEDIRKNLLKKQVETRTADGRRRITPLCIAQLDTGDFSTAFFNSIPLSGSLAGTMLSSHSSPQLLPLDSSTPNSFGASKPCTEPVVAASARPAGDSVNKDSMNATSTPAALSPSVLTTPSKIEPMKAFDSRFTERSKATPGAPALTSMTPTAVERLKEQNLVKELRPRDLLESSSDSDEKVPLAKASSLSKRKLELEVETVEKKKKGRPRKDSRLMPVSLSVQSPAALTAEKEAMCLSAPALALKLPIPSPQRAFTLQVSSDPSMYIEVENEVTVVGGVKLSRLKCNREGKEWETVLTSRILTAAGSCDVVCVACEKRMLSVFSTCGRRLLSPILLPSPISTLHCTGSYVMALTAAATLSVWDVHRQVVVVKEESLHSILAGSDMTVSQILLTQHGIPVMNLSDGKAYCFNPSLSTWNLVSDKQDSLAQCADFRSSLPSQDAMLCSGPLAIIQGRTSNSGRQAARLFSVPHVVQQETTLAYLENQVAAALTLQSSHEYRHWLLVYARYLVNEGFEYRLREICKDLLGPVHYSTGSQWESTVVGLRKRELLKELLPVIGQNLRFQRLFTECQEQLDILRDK
UniProt P48637: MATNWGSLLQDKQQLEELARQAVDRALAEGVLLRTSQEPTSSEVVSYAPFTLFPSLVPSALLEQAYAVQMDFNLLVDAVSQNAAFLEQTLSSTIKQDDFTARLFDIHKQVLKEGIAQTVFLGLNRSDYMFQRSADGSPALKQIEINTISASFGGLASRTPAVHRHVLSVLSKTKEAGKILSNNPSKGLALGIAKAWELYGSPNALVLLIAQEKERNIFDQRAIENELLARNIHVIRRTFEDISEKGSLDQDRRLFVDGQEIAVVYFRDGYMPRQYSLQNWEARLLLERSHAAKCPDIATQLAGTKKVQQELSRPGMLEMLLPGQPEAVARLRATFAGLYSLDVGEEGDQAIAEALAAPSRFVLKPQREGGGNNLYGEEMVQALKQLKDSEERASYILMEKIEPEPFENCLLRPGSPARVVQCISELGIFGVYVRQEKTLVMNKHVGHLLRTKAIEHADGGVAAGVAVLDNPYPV
UniProt P52732: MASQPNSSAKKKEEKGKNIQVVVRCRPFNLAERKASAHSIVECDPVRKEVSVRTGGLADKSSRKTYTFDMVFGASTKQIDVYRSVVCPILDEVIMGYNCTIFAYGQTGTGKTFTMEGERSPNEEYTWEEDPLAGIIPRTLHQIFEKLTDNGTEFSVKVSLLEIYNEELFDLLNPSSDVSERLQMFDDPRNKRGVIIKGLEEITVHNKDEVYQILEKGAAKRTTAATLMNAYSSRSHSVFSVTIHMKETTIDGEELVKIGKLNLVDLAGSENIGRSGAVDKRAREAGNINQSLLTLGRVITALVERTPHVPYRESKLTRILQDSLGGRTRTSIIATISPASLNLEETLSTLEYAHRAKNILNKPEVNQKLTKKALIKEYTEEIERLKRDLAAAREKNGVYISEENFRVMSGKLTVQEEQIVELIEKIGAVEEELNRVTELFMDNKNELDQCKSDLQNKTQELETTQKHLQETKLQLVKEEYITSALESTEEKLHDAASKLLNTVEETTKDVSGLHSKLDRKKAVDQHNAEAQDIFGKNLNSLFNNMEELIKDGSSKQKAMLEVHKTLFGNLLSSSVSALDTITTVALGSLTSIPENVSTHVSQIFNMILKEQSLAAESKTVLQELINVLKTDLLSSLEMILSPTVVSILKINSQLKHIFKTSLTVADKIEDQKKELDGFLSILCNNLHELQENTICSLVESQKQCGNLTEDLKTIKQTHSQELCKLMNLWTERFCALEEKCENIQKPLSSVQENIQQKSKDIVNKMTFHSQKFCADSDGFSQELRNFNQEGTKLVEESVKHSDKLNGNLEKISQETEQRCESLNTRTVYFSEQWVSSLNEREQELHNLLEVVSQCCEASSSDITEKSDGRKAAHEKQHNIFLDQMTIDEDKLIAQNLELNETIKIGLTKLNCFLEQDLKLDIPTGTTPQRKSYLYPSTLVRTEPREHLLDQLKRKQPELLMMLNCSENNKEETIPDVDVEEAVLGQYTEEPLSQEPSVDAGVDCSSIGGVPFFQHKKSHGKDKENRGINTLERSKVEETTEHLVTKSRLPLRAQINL
UniProt P49189: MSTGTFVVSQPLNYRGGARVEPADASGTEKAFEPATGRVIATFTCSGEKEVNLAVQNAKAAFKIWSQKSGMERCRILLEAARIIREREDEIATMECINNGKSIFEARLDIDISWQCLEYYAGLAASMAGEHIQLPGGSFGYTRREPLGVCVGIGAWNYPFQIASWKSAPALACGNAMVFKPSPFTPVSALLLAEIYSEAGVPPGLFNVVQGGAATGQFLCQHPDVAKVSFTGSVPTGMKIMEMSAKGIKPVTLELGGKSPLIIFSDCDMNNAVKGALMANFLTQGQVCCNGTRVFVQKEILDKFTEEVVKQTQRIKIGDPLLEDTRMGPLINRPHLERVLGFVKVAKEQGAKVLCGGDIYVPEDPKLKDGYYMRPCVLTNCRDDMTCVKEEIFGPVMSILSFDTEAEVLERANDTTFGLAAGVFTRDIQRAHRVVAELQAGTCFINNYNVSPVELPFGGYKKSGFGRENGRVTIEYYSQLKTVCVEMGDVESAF
UniProt P51659: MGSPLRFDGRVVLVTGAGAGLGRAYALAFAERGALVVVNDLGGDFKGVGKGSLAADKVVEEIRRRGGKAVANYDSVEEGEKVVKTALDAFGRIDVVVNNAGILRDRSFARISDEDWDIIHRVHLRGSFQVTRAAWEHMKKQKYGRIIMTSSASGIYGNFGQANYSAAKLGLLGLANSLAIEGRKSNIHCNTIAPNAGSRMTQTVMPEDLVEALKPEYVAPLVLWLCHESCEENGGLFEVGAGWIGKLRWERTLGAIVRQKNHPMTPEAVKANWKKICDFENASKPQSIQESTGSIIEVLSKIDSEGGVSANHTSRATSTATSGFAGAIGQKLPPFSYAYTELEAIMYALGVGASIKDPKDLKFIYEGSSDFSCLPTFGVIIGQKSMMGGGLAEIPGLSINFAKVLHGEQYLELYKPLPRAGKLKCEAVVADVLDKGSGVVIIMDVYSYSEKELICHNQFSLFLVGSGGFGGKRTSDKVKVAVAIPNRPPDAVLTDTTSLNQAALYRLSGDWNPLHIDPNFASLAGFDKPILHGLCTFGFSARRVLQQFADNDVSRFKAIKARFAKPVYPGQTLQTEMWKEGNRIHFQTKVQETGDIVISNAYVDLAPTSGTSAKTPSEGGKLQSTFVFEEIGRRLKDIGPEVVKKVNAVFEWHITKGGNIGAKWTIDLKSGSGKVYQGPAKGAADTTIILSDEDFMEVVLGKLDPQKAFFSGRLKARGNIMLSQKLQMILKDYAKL

Compound in this experiment: Cc1nc(Nc2ncc(C(=O)Nc3c(C)cccc3Cl)s2)cc(N2CCN(CCO)CC2)n1 [dasatinib]
As to the kind of experiment: log2 fold change of tryptic peptide abundance, ligand vs vehicle (limited proteolysis) (log2 ratio); higher = more trypsin-susceptible (destabilized). The note with it: ligand concentration: 5 uM; sample: K562 cleared lysate.
“MAP1B (peptide sequence: TSDVGGYYYEK, peptide start residue: 1898) (UniProt P46821)”: the log2 fold change turned out to be 0.093.
For the target “UniProt P50226 (peptide sequence: VPGIPSGMETLK, peptide start residue: 86)”, the log2 fold change is -0.185.
As for “POLR2K (peptide sequence: CRECGYR, peptide start residue: 36) (UniProt P53803)”, the log2 fold change is -0.617.
In the case of “CLK2 (peptide sequence: EHLAMMER, peptide start residue: 388) (UniProt P49760)”, the log2 fold change stood at 0.41.
For the target “DAP3 (peptide sequence: DLLQSSYNK, peptide start residue: 167) (UniProt P51398)”, the log2 fold change was 0.343.
For the target “DNA2 (peptide sequence: GGVSNVTEAK, peptide start residue: 909) (UniProt P51530)”, the log2 fold change worked out at 0.622.
For “FNTB (peptide sequence: FNHLVPR, peptide start residue: 64) (UniProt P49356)” the value was 0.141.
Regarding “UniProt P52758 (peptide sequence: AAYQVAALPK, peptide start residue: 108)”, the log2 fold change is -0.291.
In the case of “HIRA (peptide sequence: SKATPGAPALTSMTPTAVER, peptide start residue: 573) (UniProt P54198)”, the log2 fold change is -0.416.
For “UniProt P50120 (peptide sequence: KIAVRLTQTK, peptide start residue: 32)” the value was 0.619; for “PDLIM4 (peptide sequence: GYFFLDER, peptide start residue: 292) (UniProt P50479)”, -0.746; for “JAK3 (peptide sequence: KLQFYEDR, peptide start residue: 762) (UniProt P52333)”, 0.0755.
As for “GSS (peptide sequence: QYSLQNWEAR, peptide start residue: 274) (UniProt P48637)”, the log2 fold change is -0.294.
For “SERPINH1 (peptide sequence: TDGALLVNAMFFKPHWDEK, peptide start residue: 195) (UniProt P50454)” the value was 0.152.
For “NR2C2 (peptide sequence: SNQDCIINK, peptide start residue: 155) (UniProt P49116)” the value was -0.438.
For “MAPK12 (peptide sequence: GSDHLDQLK, peptide start residue: 228) (UniProt P53778)” the value was -0.145; for “KIF11 (peptide sequence: ASAHSIVECDPVR, peptide start residue: 35) (UniProt P52732)”, 0.251; for “PTDSS1 (peptide sequence: TLSKDDVNYK, peptide start residue: 9) (UniProt P48651)”, 0.299.
“ALDH9A1 (peptide sequence: IIREREDEIATMECINNGK, peptide start residue: 83) (UniProt P49189)”: the log2 fold change came out at 0.453.
Consider “ARFIP1 (peptide sequence: TIEDTLMTVK, peptide start residue: 249) (UniProt P53367)”, for which the log2 fold change is -0.138.
Take “CTCF (peptide sequence: KTFQCELCSYTCPRR, peptide start residue: 264) (UniProt P49711)”: the log2 fold change is -0.796.
In the case of “UniProt P51523 (peptide sequence: THTGEKPHGCIQCGK, peptide start residue: 424)”, the log2 fold change was -1.2.
With “RFX3 (peptide sequence: SDGLSTHR, peptide start residue: 169) (UniProt P48380)”, the log2 fold change was -0.124.
In the case of “STAT5B (peptide sequence: ATQLLEGLVQELQKK, peptide start residue: 57) (UniProt P51692)”, the log2 fold change was -0.336.
For “TPMT (peptide sequence: HLDTFLK, peptide start residue: 52) (UniProt P51580)”, the log2 fold change was 0.124.
Turning to “HSD17B4 (peptide sequence: VVLVTGAGAGLGR, peptide start residue: 11) (UniProt P51659)”, the log2 fold change was determined as 0.316.
On to “CAPZA2 (peptide sequence: ICFKFDHLRK, peptide start residue: 94) (UniProt P47755)”, for which the log2 fold change is 0.437.

The values above are taken from the supplement of paper PMC12819154, “High-throughput peptide-centric local stability assay extends protein–ligand identification to membrane proteins, tissues and bacteria” (Nature Structural & Molecular Biology, 2025).
